Data as given in patent publication US11142518B2, “6-pyrimidin-isoindole derivative as ERK1/2 inhibitor” (OTSUKA PHARMACEUTICAL CO., LTD., priority 2017, dated 2021).
Some of these results come from one statement about several compounds together.

Assay: Solubility determinations in purified water and buffers
Format: physicochemical
Conditions: buffers at pH 1.2 to 8.0
Method: The solubilities of crystalline form B and the amorphous form of the compound of formula (1) were determined in purified water and buffers at the same concentration up to 24 h stir time at 18 to 23° C.
The samples of the compound of formula (1) (50 mg) were each suspended in purified water (2 mL) or the appropriate buffer and stirred at ambient temperature (18-23° C.) for 20 to 24 h. After this time the slurries were centrifuged, diluted if appropriate by HPLC sample diluent (acetonitrile/water, 1/1, v/v) and analysed by HPLC peak area. The measured values were compared against a relevant calibration curve for the compound of formula (1). The approximate solubilities were calculated and compensation factors were applied for the appropriate dilution factors and % w/w assays. The dilution factor ensured that the peak area values fell within the desired calibration curve ranges.
The plug of solid that remained in the centrifuge tube was dried in vacuum oven and analysed by XRPD.
The preparations of the buffers used in the study are described below:
pH 1.2—Mix 50 mL of 0.2M potassium chloride solution with 85 mL of 0.2M hydrochloric acid solution.
pH 2—Mix 50 mL of 0.2M potassium chloride solution with 13 mL of 0.2M hydrochloric acid solution.
pH 3—Mix 100 mL of 0.1M potassium hydrogen phthalate with 44.6 mL of 0.1M hydrochloric acid solution. […]

For `COc1cc(F)cc([C@@H](CO)NC(=O)[C@@H](C)N2Cc3ccc(-c4nc(NC5CCOCC5)ncc4Cl)cc3C2=O)c1` [Amorphous Form of the Compound of Formula (1)] [(2R)-2-(6-{5-chloro-2-[(oxan-4-yl)amino]pyrimidin-4-yl}-1-oxo-2,3-dihydro-1H-isoindol-2-yl)-N-[(1S)-1-(3-fluoro-5-methoxyphenyl)-2-hydroxyethyl]propanamide], the “Solubility in buffers (conclusion: practically insoluble)” value was “insoluble in buffers at pH 1.2 to 8.0 (ca <0.1 mg/ml)”.
